Where a name gives a salt, the structure may show the parent alone.
Test system: Human Gamma Globulin (HGG), GLOBUCEL®
Test: Estimation of HGG concentration by absorbance at 280 nm in the presence of UV absorbing viscosity-reducing agents

Row | Structure (SMILES) | interference in the estimation of protein/HGG concentration using a UV-Vis spectrophotometer
1 | N[C@@H](Cc1c[nH]c2ccccc12)C(=O)O [Tryptophan] | do not interfere
2 | Cn1c(=O)c2c(ncn2C)n(C)c1=O [Caffeine, reference compound] | do not interfere
3 | O=C(O)c1cccnc1 [Nicotinic acid (acid form)] | do not interfere
4 | Cc1ncc(C[n+]2csc(CCO)c2C)c(N)n1 [Thiamine-HCl] | do not interfere

Reference: patent US11738082B2, “High concentration protein formulations with reduced viscosity” (Bhami's Research Laboratory, Pvt. Ltd., priority 2017, dated 2023)
